# Experimental data published in PubChem BioAssay AID2073 (Sanford-Burnham Center for Chemical Genomics, 2009).
# Protein sequences, listed by entry. Tags and fused reporters are not part of them.
# UniProt Q00975, whole entry, looked up: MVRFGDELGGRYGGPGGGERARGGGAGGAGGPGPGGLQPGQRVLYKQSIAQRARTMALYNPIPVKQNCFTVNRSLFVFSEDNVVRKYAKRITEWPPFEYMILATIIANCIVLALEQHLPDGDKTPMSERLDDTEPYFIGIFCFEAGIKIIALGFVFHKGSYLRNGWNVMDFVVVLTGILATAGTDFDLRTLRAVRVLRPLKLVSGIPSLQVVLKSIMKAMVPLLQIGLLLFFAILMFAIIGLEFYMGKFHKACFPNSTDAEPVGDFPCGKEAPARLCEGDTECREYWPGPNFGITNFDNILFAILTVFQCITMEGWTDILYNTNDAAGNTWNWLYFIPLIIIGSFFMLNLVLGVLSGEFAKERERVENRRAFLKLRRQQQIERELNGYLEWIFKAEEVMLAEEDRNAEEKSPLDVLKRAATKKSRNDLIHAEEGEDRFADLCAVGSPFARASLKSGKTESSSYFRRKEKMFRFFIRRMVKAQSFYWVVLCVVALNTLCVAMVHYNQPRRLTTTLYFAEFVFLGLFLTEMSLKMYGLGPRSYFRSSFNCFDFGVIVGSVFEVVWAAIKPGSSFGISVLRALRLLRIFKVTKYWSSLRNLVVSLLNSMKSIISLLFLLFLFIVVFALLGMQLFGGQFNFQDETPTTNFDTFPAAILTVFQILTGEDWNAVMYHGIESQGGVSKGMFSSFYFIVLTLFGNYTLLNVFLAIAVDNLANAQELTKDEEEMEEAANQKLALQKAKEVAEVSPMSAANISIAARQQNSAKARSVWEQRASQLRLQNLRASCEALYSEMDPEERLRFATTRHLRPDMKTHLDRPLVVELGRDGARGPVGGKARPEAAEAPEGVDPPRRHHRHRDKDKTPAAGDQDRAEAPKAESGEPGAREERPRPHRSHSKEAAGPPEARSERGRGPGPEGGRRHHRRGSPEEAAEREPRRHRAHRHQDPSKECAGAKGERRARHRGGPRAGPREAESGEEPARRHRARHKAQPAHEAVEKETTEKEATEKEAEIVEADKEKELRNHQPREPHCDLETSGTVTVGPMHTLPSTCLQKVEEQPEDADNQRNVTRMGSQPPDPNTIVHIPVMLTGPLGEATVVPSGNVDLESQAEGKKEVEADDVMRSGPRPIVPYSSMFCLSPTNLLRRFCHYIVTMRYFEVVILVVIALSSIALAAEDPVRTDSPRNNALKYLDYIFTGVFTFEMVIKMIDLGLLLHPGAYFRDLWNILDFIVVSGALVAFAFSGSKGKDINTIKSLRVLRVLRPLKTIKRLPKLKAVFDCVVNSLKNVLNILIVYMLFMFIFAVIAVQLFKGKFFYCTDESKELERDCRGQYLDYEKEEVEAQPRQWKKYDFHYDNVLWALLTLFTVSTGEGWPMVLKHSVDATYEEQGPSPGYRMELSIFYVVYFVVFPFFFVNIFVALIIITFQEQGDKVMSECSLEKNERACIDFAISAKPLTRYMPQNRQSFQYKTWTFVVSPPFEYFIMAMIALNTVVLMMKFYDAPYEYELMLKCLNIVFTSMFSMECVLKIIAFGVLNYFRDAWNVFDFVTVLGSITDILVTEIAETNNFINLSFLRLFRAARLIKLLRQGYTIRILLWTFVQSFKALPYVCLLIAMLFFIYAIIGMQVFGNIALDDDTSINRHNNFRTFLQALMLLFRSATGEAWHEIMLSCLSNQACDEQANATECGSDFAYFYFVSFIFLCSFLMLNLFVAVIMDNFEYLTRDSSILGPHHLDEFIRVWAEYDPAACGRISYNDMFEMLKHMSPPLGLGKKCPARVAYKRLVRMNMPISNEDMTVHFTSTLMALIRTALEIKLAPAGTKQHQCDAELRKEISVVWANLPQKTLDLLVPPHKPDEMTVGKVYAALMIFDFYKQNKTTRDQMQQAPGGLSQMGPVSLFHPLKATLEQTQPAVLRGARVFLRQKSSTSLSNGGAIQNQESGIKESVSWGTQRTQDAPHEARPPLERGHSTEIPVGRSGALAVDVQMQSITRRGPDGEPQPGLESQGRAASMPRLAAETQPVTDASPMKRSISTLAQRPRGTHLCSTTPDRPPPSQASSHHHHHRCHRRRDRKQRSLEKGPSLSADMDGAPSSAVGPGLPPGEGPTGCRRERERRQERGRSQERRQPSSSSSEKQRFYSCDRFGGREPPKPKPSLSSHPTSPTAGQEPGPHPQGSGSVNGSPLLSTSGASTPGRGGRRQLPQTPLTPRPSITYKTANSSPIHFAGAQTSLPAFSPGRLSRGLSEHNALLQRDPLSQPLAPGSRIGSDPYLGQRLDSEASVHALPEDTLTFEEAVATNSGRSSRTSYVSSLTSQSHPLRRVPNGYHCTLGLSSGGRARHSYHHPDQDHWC
# In all, about 290,000 compounds went through this assay and about 570 (0.2%) were called active. The shares of active, inactive and inconclusive entries below differ from those in the screen. Cut-off read from the data, not from the text of the source: active = inhibition mostly above about 51% (no sharp cut-off); inconclusive = no clear call, values can overlap the other calls; inactive = mostly below about 53%.
# Biological target: Voltage-dependent N-type calcium channel subunit alpha-1B (Homo sapiens) (UniProt Q00975)
# Test: disruptors of CaV2.2 binding to Mint1 – biochemical, HTRF (AID 2073)
# Details: HTRF protein-protein interaction, Mint1-CaV2.2; at 20 µM; stronger effect = higher value
row,SMILES,inhibition
1,CCC(C)NCCOCCSc1ccc(Cl)cc1 (stereo not given),inconclusive: 64.3%
2,O=C(Nc1ccccc1-c1nc2ccccc2s1)c1ccc(Br)o1,inconclusive: 71.4%
3,Cc1ccc2c(c1)cc(CN(Cc1ccco1)C(=O)N1CCOCC1)c1nnnn12,inconclusive: 51.8%
4,C=CCON/C(CCC)=C1\C(=O)CC(C)(C)CC1=NC,inconclusive: 59.2%
5,O=C(N/N=C1\CCCc2ccccc21)c1cccc(Br)c1,inactive: -12.7%
6,Cc1nc2sc(C(c3cccc(F)c3)N3CCN(C(=O)c4ccco4)CC3)c(O)n2n1 (stereo not given),inactive: 3.9%
7,CC(=O)Nc1cccc(-c2csc(NCc3ccccc3)n2)c1,inconclusive: 57.7%
8,Cc1ccc(N=C2NC(=O)/C(=C\c3ccco3)S2)cc1,inactive: 58.4%
9,COc1ccc(-n2nc(N)c(C(N)=O)n2)cc1,inconclusive: 51.9%
10,COc1ccc2c(c1OC)C(=O)N1N=C(c3ccc(Br)cc3)CC21 (stereo not given),inconclusive: 64.3%
11,C=CCNc1nc2ccccc2c(=O)[nH]1,inconclusive: 73.6%
12,COCc1cc(N2CCOCC2)nc(-c2ccccc2)n1,inconclusive: 86.9%
13,O=C1OCC2OC(O)C(O)C(O)C2OC(=O)c2cc(O)c(O)c(O)c2-c2c(O)c(O)c3oc(=O)c4c(c(O)c(O)c5oc(=O)c2c3c54)-c2c1cc(O)c(O)c2O (stereo not given),inconclusive: 51%
14,O=C(N/C(=C/c1cn(-c2ccccc2)nc1-c1ccccc1)C(=O)N1CCOCC1)c1ccc(Cl)cc1Cl,inconclusive: 53.2%
15,CC(=O)Nc1cccc(-c2csc(NCc3ccco3)n2)c1,inconclusive: 81.8%
16,NS(=O)(=O)c1ccc(NC(=O)/C=C/c2cn(-c3ccccc3)nc2-c2cccc(Cl)c2)cc1,inconclusive: 52.1%
17,CSc1ccc(/C=C(/NC(=O)c2ccco2)C(=O)NCc2ccco2)cc1,inconclusive: 63.3%
18,COc1ccc(C(=O)NCC(=O)OCC(=O)Nc2cc([N+](=O)[O-])ccc2F)cc1,inconclusive: 68.9%
19,Cc1cc(NC(=O)c2cc(-c3ccco3)on2)no1,inconclusive: 65.4%
20,Cc1ccc(NS(=O)(=O)c2ccc(OCC(=O)N3CCOCC3)cc2)cc1,inactive: -10.3%
21,COc1cc2c(cc1OC)CN(C(=O)/C=C/c1cccs1)CC2,inconclusive: 73.8%
22,Cn1cc2ccc(N)cc2n1,inconclusive: 79.6%
23,C#CCOn1c(-n2nc(C)cc2C)nc2ccccc2c1=O,inconclusive: 69.1%

row,SMILES,inhibition
1,COc1ccc(Cl)cc1NC(=O)CC(C)=O,inconclusive: 54.8%
2,COc1cccc(N(Cc2nnc3n2CCCCC3)C(=O)Nc2ccccc2F)c1,inconclusive: 89.8%
3,O=C(NC1CCCCC1)C(c1ccco1)N(Cc1ccco1)C(=O)c1ccco1 (stereo not given),inconclusive: 88.8%
4,N#CC1(C#N)[C@@H](C(=O)C23CC4CC(CC(C4)C2)C3)C12CCOCC2,inactive: 0%
5,CC(C)(C)CC(=O)Nc1ccc(-c2cn3cccnc3n2)cc1,inconclusive: 52.7%
6,O=C(c1cccc(N2C(=O)C3C4C=CC(C4)C3C2=O)c1)N1CCCc2ccccc21 (stereo not given),inconclusive: 58%
7,COc1cc(/C=N/NC(=O)c2ccncc2)ccc1OC(C)=O,inactive: 11.8%
8,COc1nccnc1NS(=O)(=O)c1ccc(NC(=S)NC(=O)c2cccnc2)cc1,inconclusive: 68.6%
9,CCCc1nc2ccc(NC(C)=O)cc2c(=O)n1Cc1ccc(Cl)cc1,inconclusive: 67.9%
10,COC(=O)c1ccc(/C=N/NC(=O)CC(=O)NC2CCCCC2)cc1,inconclusive: 70.5%
11,COc1ccc(C(OCC(O)CNC(C)c2ccccc2)c2ccc(OC)cc2)cc1 (stereo not given),inconclusive: 89.2%
12,CC1(C)C(=O)N(OCc2ccccc2)C(C)(C)C(=O)N1OCc1ccccc1,inconclusive: 55.9%
13,CCOC(=O)c1sc(-c2ccc(Cl)cc2Cl)nc1O,inconclusive: 53.6%
14,O=C(Nc1ccccc1-c1nnc(SCc2ccc(Cl)cc2)o1)c1ccccc1,inconclusive: 73.1%
15,O=C(c1ccc(Cl)cc1)n1c(NCc2ccccc2)n[nH]c1=S,inconclusive: 57.2%
16,COc1cc(/C=N/NC(N)=O)cc(Br)c1OCc1ccccc1C,inconclusive: 56.9%
17,Cc1ccc(-n2cccc2/C=C2/C(=N)N3C(=NC2=O)SN=C3S(C)(=O)=O)cc1Cl,inactive: 29.3%
18,Cc1c(Cl)cccc1NC(=O)CNc1ccccc1F,inconclusive: 78.5%
19,Cc1cc(C)c2c(c1)NC(c1cc3c(cc1Br)OCO3)C1CC=CC21 (stereo not given),inactive: 12.6%
20,Oc1ccc2ccccc2c1/C=N/c1nccs1,inconclusive: 58.6%
21,CC1CCN(C(=O)C2CCCN(S(=O)(=O)c3cccc4nsnc34)C2)CC1 (stereo not given),inactive: 5.2%
22,COc1ccc(/C=C2/SC(=O)N(CCC(=O)Nc3ccc(S(=O)(=O)Nc4nccs4)cc3)C2=O)cc1,active: 53%
23,CC(C)CC(=O)Nc1nnc(SCC(=O)NCc2ccc3c(c2)OCO3)s1,inactive: 6%

row,SMILES,inhibition
1,CCOc1ccc(NC(=O)c2cc3cc4ccc(C)cc4nc3o2)cc1,inconclusive: 76.6%
2,Cc1nccn1CC(O)COc1ccc([N+](=O)[O-])cc1 (stereo not given),inconclusive: 91.7%
3,CN(c1ccc(Br)cc1)S(=O)(=O)c1ccc2[nH]cc(C(=O)NCCN3CCOCC3)c(=O)c2c1,inconclusive: 83.9%
4,O=[N+]([O-])c1ccc(O)c(C=Nc2cccc3ccccc23)c1,inactive: -35.1%
5,FC(F)(F)Oc1ccc(NC(=S)NCCCN2CCOCC2)cc1,inactive: -16.9%
6,COCCOC(=O)c1c(C)n(C)c2ccc(OC(=O)c3ccccc3F)cc12,inactive: -3.1%
7,CC(C)c1ccc(NC(=O)C2CC2c2ccccc2)cc1 (stereo not given),inconclusive: 57.5%
8,N#CC1=C(O)C(c2ccccc2)n2c1nc(=O)c1ccccc12 (stereo not given),inconclusive: 60.8%
9,FC(F)(F)c1ccc(CN2C[C@@H]3C(c4ccccc4)C4(c5cccnc5)CC3(C4)[C@H]2c2ccccc2)cc1 (stereo not given in full),inconclusive: 66.8%
10,COC(=O)CN1C(=O)c2cccc3cccc1c23,inconclusive: 72.4%
11,CSc1cccc(NS(=O)(=O)c2cn(C)cn2)c1,inconclusive: 57.6%
12,Cn1c(-c2ccco2)n[nH]c1=S,inconclusive: 77.7%
13,COc1ccc(/C=N/NC(=O)c2cccc(C(=O)N/N=C/c3ccc(OC)c(OC)c3)n2)cc1OC,inconclusive: 57.1%
14,Cc1cc(C)c(NC(=O)CN2C(=O)NC3(CCCCC3)C2=O)c(C)c1,inconclusive: 82.9%
15,Cc1ccc(C(=O)NCCS(=O)(=O)N2CCN(c3ccccc3F)CC2)cc1[N+](=O)[O-],inconclusive: 54.4%
16,COC(=O)c1sc(NC(=S)NC(=O)c2ccccc2)nc1C,inconclusive: 60.3%
17,CCS(=O)(=O)c1nc(S(=O)(=O)c2ccc(Cl)cc2)c(N2CCC3(CC2)OCCO3)s1,inconclusive: 71.9%
18,Cc1ccc(-n2c(SCC(=O)Nc3cccc(S(=O)(=O)NC4=NCCCCC4)c3)nc3ccccc3c2=O)cc1,inconclusive: 60.9%
19,CCc1cc(=O)oc2cc(C)cc(O)c12,inconclusive: 68.5%
20,CCN1CCCC1CNC(=O)c1cc2c(C)nc3ccccc3c2o1 (stereo not given),inactive: 5.2%
21,O=C(/C=C/c1c(Cl)cccc1Cl)n1cccn1,inconclusive: 53%
22,COCCCn1cn[nH]c1=S,inconclusive: 69.1%
23,COc1cc(OC)c(NC(=O)c2ccc3c(SCC(=O)O)c4c(nc3c2)CCCC4)cc1Cl,inactive: 44.9%

row,SMILES,inhibition
1,COc1ccc(-c2cc(-c3ccco3)[nH]c(=O)c2C#N)cc1OC,inactive: 0.3%
2,Nc1nnc(-c2cc3ccccc3oc2=O)s1,inconclusive: 51.7%
3,Cc1cc(C)c(OCCOCCN2CCN(C)CC2)c(Cl)c1,inconclusive: 51.1%
4,O=C(CO/N=C/c1cccc([N+](=O)[O-])c1)Nc1ccc2ccccc2c1,inconclusive: 50.7%
5,COc1ccc(Cn2nnnc2C(c2ccccc2OC)N2CCC(C(N)=O)CC2)cc1 (stereo not given),inconclusive: 72.5%
6,C=CCNc1nc(NC(C)(C)CO)nc(OC)n1,inconclusive: 89.8%
7,CC1(C)Cc2nc3sc(C(=O)NCCCO)c(N)c3cc2CS1,inactive: 30.6%
8,CCN(c1ccc(N=Cc2c(O)n(Cc3ccc(OC)cc3)c(=O)c3ccccc23)cc1)C(C)C,inconclusive: 64.5%
9,CCOC(=O)c1c(NC(=O)C2CCCO2)sc(C(N)=O)c1C (stereo not given),inconclusive: 68.5%
10,O=C(NC1CCCCCCC1)c1cccnc1,inconclusive: 74.9%
11,O=C(CCCSc1ccccc1)Nc1nc(-c2ccco2)c(-c2ccco2)s1,inactive: 71.8%
12,Cc1oc(/N=C/c2cccc3ccccc23)c(C#N)c1C,inconclusive: 55.4%
13,O=C(Nc1cccc(S(=O)(=O)NC2=NCCCCC2)c1)c1cc(-c2ccco2)nc2ccccc12,inactive: 40.5%
14,CCN(CC)Cc1c(O)ccc2cc(-c3nc4ccccc4n3C)c(=O)oc12,inconclusive: 55%
15,COC(=O)c1c(NC(=O)COC(=O)c2ccc(NC(=O)CC#N)cc2)sc2c1CCCCC2,active: 78.4%
16,COC(=O)c1sccc1NC(=O)c1ccc(C)o1,inactive: 19.2%
17,Cc1ncc(CO)c(/C=N/NC(=S)Nc2ccc(C(C)C)cc2)c1O,inactive: 16.5%
18,NCCCC[C@H]1CN=C(N)N1CCC12CC3CC(CC(C3)C1)C2,inconclusive: 50.4%
19,Cc1ccc(S(=O)(=O)Nc2ccc3nc(N)sc3c2)cc1,inconclusive: 70.2%
20,O=C(/C(=N/N=C/c1ccc(O)c(O)c1)c1ccccc1)c1ccccc1,inactive: -21.8%
21,COc1ccc(N=C2NC(=O)/C(=C/c3ccco3)S2)cc1,inactive: -14.1%

# Retrieved one by one from above, four records:
row,SMILES,inhibition
12,Cc1oc(/N=C/c2cccc3ccccc23)c(C#N)c1C,inconclusive: 55.4%
13,O=C(Nc1cccc(S(=O)(=O)NC2=NCCCCC2)c1)c1cc(-c2ccco2)nc2ccccc12,inactive: 40.5%
15,COC(=O)c1c(NC(=O)COC(=O)c2ccc(NC(=O)CC#N)cc2)sc2c1CCCCC2,active: 78.4%
19,Cc1ccc(S(=O)(=O)Nc2ccc3nc(N)sc3c2)cc1,inconclusive: 70.2%
